# Assay results: article PMC11970781
# Amino acid sequences for entries named in this document (tags omitted). Residues count along the entry.
# UniProt Q9EZE7, residues 54-1028: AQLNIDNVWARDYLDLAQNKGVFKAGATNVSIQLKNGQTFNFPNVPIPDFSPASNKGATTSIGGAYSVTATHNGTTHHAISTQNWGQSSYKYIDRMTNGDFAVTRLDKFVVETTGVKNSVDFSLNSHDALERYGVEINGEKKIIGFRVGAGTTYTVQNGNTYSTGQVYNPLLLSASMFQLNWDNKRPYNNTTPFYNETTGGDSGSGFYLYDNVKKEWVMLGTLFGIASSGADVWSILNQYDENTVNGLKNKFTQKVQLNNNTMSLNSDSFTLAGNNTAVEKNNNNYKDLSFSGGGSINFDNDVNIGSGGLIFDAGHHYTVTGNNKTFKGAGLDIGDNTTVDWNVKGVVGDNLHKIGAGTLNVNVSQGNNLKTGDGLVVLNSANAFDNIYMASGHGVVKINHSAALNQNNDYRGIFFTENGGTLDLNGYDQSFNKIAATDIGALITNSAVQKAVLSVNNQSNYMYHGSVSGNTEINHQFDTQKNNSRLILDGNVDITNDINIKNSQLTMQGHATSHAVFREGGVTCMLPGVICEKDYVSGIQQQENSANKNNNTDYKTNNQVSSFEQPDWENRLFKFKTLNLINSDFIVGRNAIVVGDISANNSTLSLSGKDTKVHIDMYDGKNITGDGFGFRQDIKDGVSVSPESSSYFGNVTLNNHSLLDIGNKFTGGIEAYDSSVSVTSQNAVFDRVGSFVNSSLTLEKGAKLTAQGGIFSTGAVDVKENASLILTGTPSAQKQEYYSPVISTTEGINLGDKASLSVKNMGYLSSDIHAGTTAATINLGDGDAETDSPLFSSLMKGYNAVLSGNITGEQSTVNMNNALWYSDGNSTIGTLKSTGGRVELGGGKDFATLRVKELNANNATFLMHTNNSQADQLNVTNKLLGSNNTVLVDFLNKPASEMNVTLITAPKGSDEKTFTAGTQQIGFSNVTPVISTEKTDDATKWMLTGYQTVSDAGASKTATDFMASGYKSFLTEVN
# No constants are given. Whether binding was seen depends on the method and setting.
# Biological target: EspC passenger domain (α^EspC) (enteropathogenic E. coli (0127:H6 E2348/69)) (UniProt Q9EZE7)
# Experiment: AUC; sedimentation velocity; α^EspC at 0.5, 1 and 2 mg mL^-1 in 25 mM HEPES pH 7.0, 150 mM NaCl; 20°C; 40,000 rpm; absorbance at 280 nm; continuous-size distribution model (SEDFIT); both purified
substance,measurement,value
EspC passenger domain (α^EspC) (from UniProt Q9EZE7 54-1028) (domain or fragment),binding,no binding (tested: 2 mg mL^−1)
